For this assay, the target named is GAPDH (endogenous, OVCA420) (human (endogenous in OVCA420)) (UniProt P04406). Nature of the assay: co-IP; endogenous proteins in OVCA420 lysate (25 mM Tris-HCl pH 7.4, 150 mM NaCl, 1 mM EDTA, 1% NP-40, 5% glycerol); IP with CLDN7 antibody or, as control, GAPDH antibody, Protein A and Protein G beads, 4°C; blot for APLP2.

The chains behind the UniProt entries cited, without tags or fusion partners. Residues count along the entry.
UniProt P04406: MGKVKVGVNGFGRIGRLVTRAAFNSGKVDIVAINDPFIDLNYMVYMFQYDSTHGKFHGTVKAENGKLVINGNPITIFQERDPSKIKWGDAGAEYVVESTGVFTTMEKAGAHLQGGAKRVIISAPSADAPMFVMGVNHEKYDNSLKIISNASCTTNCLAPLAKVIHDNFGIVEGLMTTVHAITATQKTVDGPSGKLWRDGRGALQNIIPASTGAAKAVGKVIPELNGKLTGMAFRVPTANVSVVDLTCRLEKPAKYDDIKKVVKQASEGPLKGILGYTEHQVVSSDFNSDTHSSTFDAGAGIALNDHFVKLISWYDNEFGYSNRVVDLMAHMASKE
UniProt Q06481, residues 32-763: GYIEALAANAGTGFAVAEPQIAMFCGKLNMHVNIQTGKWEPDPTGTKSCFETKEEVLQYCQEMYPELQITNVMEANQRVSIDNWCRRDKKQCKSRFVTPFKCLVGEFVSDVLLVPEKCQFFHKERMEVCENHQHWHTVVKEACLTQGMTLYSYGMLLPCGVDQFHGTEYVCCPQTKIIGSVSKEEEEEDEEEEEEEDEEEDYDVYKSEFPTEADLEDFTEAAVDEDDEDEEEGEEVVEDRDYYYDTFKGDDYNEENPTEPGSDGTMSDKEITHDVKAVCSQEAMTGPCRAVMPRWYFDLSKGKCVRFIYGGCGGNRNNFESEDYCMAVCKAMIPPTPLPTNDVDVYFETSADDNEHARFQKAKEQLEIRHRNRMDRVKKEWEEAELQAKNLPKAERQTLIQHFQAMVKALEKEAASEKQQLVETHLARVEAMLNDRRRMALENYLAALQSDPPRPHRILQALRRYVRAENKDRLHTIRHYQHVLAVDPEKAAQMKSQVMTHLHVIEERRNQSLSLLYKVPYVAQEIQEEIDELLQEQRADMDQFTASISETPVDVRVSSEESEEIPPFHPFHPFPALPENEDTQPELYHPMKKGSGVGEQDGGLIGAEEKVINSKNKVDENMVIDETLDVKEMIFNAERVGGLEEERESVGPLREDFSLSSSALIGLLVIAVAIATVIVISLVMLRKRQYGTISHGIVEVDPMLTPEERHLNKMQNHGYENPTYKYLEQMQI

Results are given in words; binding and its absence hold for the method and conditions named. In cells and extracts the contact can be indirect.

Take “Amyloid precursor-like protein 2 (endogenous, OVCA420) (from UniProt Q06481 32-763)”: the binding entry is reported as “no binding”.

The values above are taken from publication PMC7117550.
